These are yes or no findings as the source states them, for the method shown. Some binding calls cover weakened binding; strength is not graded here. Tags and fused reporters may be left off the sequences shown.

The record followed here is paper PMC2814829.

The experiment concerns the target T1, LexA-BD-CED-2 (full-length CED-2/CrkII fused to the LexA DNA binding domain) (C. elegans) (UniProt Q9NHC3).
T1 sequence: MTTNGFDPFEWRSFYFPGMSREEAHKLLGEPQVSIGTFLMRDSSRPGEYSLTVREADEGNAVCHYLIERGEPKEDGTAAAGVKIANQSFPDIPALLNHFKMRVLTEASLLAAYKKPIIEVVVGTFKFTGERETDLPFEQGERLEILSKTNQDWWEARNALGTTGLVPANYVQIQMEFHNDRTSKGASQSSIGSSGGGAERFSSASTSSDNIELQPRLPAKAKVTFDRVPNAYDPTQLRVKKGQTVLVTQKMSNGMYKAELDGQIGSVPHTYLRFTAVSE
Briefly: two-hybrid; bait LexA-BD-CED-2 (pBTM116-Src), prey Gal4-AD fusion (pGAD-GH); constitutively active Src kinase expressed in the yeast; growth on Leu- Trp- His- plates in the screen, retest by beta-galactosidase activity on Leu- Trp- plates with X-Gal.

B1: Phosphorylated APR-1/APC, amino acids 1-545, Gal4-AD fusion, in yeast expressing constitutively active Src kinase (domain or fragment, UniProt Q21227 1-545)
chain: MSSSSSDENETTIHRTGSNTGGSGIYSQPRAGSSKRTSNVRHDVSDVDDEEEHYARFREDTAIEVDDAITVLLSSLHFEHKRDIVPTDEDDNKLRELHEKIFALITSESDVNRKRRLKKALPASNCVREQVYYLRRKPSTPPASYYHRLNAALHTIVKESFGEEYRKVATVLGLVEALAEVLILEVHTFGINETNPGEHRNIRKLIANALTNLTYGQIHSKRRLCSYDGFIRCVVRIVIESPNITQVYAGLIRNLSWNADSGMSEALQPTVHALSIAAVHAHTHRFDVTATLSALWNLAGHSVENKRTICDTPNCLKVLASLLSPDARFTSLVDSATGILKYVSQYLANTSTHLELRSLLITRMLTLLKSASFTCVTNTLGAIANLIVKDPHMQQMIRQDMAAVQQLNVLRNSNRDDIRTAVKSVLNTLNQPCSHRYGDMSHSVGGGATGMQMLSEPQLQMQTSHHAYHGTASPRLLSLRATRASPGKYIQPQAQQQLIQTPQVDQRSSSLPRHFAVQRNGFVMAQSYNQQMDQHQQQQMIYQLQ
modifications: phosphotyrosine (constitutively active Src kinase in the yeast; site not stated)
As for B1, the binding entry was “binds”.
